From patent US6436636B1, “Methods for identifying pharmacologicals for the treatment of heart failure” (Wake Forest University, priority 1995, dated 2002)
For at least one entry, the source does not settle the construct or the ends of the probe. Results from cells or extracts need not show a direct contact.

System: beta-ARB (Mr 38,000 protein in ribosomal salt wash of DDT1-MF2 cells)
Experiment: binding assay
Conditions: 5'-cap; UV-crosslinking, 22 C, yeast tRNA and heparin; self-competed at 10-50-fold excess; protein in an extract; label: 32P-UTP uniform

AGGGCCCGGCGCGGGGCGCGGACCCGGGCACGGCCCCAGGGGAACGAGGAGACGGACAAGACCGAAGCAGGGAACCGAAGCCCACAACCCGCGAACACCGAGGCAAAGAGAAAAGCCACGGACCGGCACAAAAAGGAAAGGGGAAGGGAGGGAGAGGGCGCGAGCCGGCCCCCCCGGGGCCGGCCCGGGGCGGGAGCACAGACCCCCACCAGGGGGCACACCCGAGAGGACCGGAGGGAAGAGGGGGGAGGGGAAGGGAGAAGCAAGGGAGGCAAAAACGACACGCCGACCCACCCCCCGGGAACAGGAACACACACCGACCAGAGAGAGGAGAAGACAGGCAAGACAACCGCCCAGAGAAACAAACAAGAAGACGCGAGAAAGCAAAGAGAAAGGAGGAGGCAAAAAAAAAAAAACACGCAAGAAAGAAGCCCGGAACAAGCCCCACCGCCCGGAGGGCAAACCCGCGCCCCCGCGCGCCGGGGGCAGGCGAGGGACACCCACACGGCAGCACAGCAGAAGAAAGACGAAAAACAGCAAGACAAAAGGGAAGGACCAGGCGCAGAGCCCCCGGACAGGACCGCAAGAAGACAGGACAAAAAGAGAGCAGAGAGAGAGAAACAGCAGAACGCACAGGGAAAAAACAAAAAAGACAAGCAGCGACAGAG [human beta1-AR 3'UTR RNA]
binding result: binds
